In this data set the target is T1, Serum response factor (SRF) (UniProt P11831).
T1 sequence (looked up, limits assumed): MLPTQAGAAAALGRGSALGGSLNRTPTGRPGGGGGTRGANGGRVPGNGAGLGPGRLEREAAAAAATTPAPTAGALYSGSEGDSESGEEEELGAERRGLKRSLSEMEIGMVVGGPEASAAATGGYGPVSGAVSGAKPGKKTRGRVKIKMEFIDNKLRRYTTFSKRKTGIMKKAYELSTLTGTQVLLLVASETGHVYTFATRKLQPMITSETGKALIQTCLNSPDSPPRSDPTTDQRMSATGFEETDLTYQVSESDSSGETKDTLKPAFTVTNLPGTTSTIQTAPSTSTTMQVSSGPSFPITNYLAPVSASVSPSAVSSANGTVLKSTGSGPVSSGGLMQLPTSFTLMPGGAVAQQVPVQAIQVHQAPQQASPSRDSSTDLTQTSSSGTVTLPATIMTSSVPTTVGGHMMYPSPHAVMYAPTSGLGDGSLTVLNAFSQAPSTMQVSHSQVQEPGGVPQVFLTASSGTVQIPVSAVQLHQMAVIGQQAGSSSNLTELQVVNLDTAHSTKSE
The data set is described as follows: EMSA. Particulars: COS cell extract; 6% non-denaturing gel, 0.5xTBE; cold wild-type oligo competes, mutant cold competitor does not; protein in a lysate after overexpression; protein details: epitope-tagged, expressed in COS cells; label: Klenow-labeled.

Consider one sequence from patent US20090226375.

At least one result comes from cells or an extract, where the contact may be indirect. Where a protein sequence is shown, tags need not be part of it.

With “GGGCCTTGCCATATAAGGGCAGGA / GGTCCTGCCCTTATATGGCAAGGC [miR-143/145 CArG wild-type probe]”, the binding result is listed as “binds”.
